Values of other authors, collected in patent US6939863B2, “Prevention of atherosclerosis and restenosis” (priority 2002, dated 2005).
For at least one compound, name, drawing or mass did not settle the structure.

Assays:
[1] = summary table; cited from earlier work
[2] = summary table; cited from earlier work; remark: listed apart in the source
restenosis [3] = details: summary table; cited from earlier work
restenosis [4] = details: summary table; cited from earlier work; remark: listed apart in the source
restenosis [5] = details: summary table; cited from earlier work; remark: listed apart in the source
endothelial cells = details: summary table; cited from earlier work
Also: key: '+' represents the ability; a '−' represents the inability of conversion from a non-contracile phenotype to a contractile phenotype in an in vitro condition; A '↓' represents decrease; a '?' represents no data is available.

Row | SMILES | Anti-coagulation [1] | Anti-inflammation [2] | Effect on animal models of restenosis, Rat (restenosis [3]) | Effect on animal models of restenosis, Pig (restenosis [4]) | Effect on restenosis, Human (restenosis [5]) | Endothelial cellular function (endothelial cells)
1 | C[C@@H]1C[C@H]2[C@@H]3CCC4=CC(=O)C=C[C@]4(C)[C@@]3(F)[C@@H](O)C[C@]2(C)[C@@]1(O)C(=O)CO [Dexamethasone] | + | + | + | − | − | 
2 | C[C@]12CC[C@@H]3c4ccc(O)cc4CC[C@H]3[C@@H]1CC[C@@H]2O [Estradiol] |  | + | + | + | − | +
3 | CO[C@H]1C[C@@H]2CC[C@@H](C)[C@@](O)(O2)C(=O)C(=O)N2CCCC[C@H]2C(=O)O[C@H]([C@H](C)C[C@@H]2CC[C@@H](O)[C@H](OC)C2)CC(=O)[C@H](C)/C=C(\C)[C@@H](O)[C@@H](OC)C(=O)[C@H](C)C[C@H](C)/C=C/C=C/C=C/1C [Sirolimus] | − | + | + | + | + | +
